doi:10.1101/2021.07.21.453261

B1: TgGRA4 (protein, UniProt Q27002 21-345)
chain: GECSFGSHLADMAGLSGRHDKERHQAKKRYYHSMYGNQTPYPYANGQQASPPPQGQLLIIQNPDGSFMIVDQQGVPQVPQAAGGPGSPMNGGYYMPTGVYTAQVVPGTPGHPVQAIPQQPLRTQATATYYHPAAVPPPGPSVFVFTPSSVQPGAEVTPGYSGLQLRQQSQYGYSYPGTTSTPTPPPPASYGYPVFPAFPRLPAFSDSVSVSTEDSGLTGVKDSSSSESTVTPADEAASESEEGDKTSRKSKVKKGILTGLGVAATLAAAAAAAKAVKGFGGTRTSTAPAEAGKTELDDGYRPPPFNPRPSPYAELLKDLERMRKE
B2: Peflin (PEF1) (protein, UniProt Q9UBV8 1-284)
chain: MASYPYRQGCPGAAGQAPGAPPGSYYPGPPNSGGQYGSGLPPGGGYGGPAPGGPYGPPAGGGPYGHPNPGMFPSGTPGGPYGGAAPGGPYGQPPPSSYGAQQPGLYGQGGAPPNVDPEAYSWFQSVDSDHSGYISMKELKQALVNCNWSSFNDETCLMMINMFDKTKSGRIDVYGFSALWKFIQQWKNLFQQYDRDRSGSISYTELQQALSQMGYNLSPQFTQLLVSRYCPRSANPAMQLDRFIQVCTQLQVLTEAFREKDTAVQGNIRLSFEDFVTMTASRML
B3: TgGRA1 (protein, UniProt P13403 25-190)
chain: AEGGDNQSSAVSDRASLFGLLSGGTGQGLGIGESVDLEMMGNTYRVERPTGNPDLLKIAIKASDGSYSEVGNVNVEEVIDTMKSMQRDEDIFLRALNKGETVEEAIEDVAQAEGLNSEQTLQLEDAVSAVASVVQDEMKVIDDVQQLEKDKQQLKDDIGFLTGERE

Biological target: TgGRA14 endogenously epitope-tagged at the C-terminus with 6x-HA (ME49Δku80 GRA14-HA6x) (Toxoplasma gondii (ME49))
Assay: affinity purification with mass spectrometry

Binder | binding
B1 | binds
B2 | binds
B3 | binds

These are yes or no findings as the source states them, for the method shown. In cells and extracts the contact can be indirect. A yes stands for co-enrichment or nearness to the bait. Other partners may have been found.
